From article doi:10.1101/2023.02.14.528378
These are yes or no findings as the source states them, for the method shown. In cells and extracts the contact can be indirect. Some results given as binding are weak or reduced against the parent protein; the word gives no strength. Tags and fused reporters may be left off the sequences shown.

Molecular target: T1, PINK1 tagged with either LgBiT or SmBiT, Q9BXM7
T1 chain: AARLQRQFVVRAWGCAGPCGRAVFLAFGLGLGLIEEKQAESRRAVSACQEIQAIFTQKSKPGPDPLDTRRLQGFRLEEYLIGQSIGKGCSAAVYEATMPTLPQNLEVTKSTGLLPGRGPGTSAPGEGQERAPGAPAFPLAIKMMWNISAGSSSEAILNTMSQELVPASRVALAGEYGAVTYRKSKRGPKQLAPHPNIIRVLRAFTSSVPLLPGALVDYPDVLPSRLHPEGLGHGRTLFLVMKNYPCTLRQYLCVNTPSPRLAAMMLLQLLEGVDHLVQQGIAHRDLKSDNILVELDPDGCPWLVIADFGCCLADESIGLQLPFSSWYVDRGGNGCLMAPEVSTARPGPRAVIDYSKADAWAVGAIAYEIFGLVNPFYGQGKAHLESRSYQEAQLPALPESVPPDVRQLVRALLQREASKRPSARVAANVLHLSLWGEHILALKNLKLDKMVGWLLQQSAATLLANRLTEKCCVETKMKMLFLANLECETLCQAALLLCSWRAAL
Test: split reporter
Conditions: remark: other sources report otherwise

- binding: binds
B1: PINK1 tagged with either LgBiT or SmBiT, Q9BXM7 78-581 (protein)
chain: AARLQRQFVVRAWGCAGPCGRAVFLAFGLGLGLIEEKQAESRRAVSACQEIQAIFTQKSKPGPDPLDTRRLQGFRLEEYLIGQSIGKGCSAAVYEATMPTLPQNLEVTKSTGLLPGRGPGTSAPGEGQERAPGAPAFPLAIKMMWNISAGSSSEAILNTMSQELVPASRVALAGEYGAVTYRKSKRGPKQLAPHPNIIRVLRAFTSSVPLLPGALVDYPDVLPSRLHPEGLGHGRTLFLVMKNYPCTLRQYLCVNTPSPRLAAMMLLQLLEGVDHLVQQGIAHRDLKSDNILVELDPDGCPWLVIADFGCCLADESIGLQLPFSSWYVDRGGNGCLMAPEVSTARPGPRAVIDYSKADAWAVGAIAYEIFGLVNPFYGQGKAHLESRSYQEAQLPALPESVPPDVRQLVRALLQREASKRPSARVAANVLHLSLWGEHILALKNLKLDKMVGWLLQQSAATLLANRLTEKCCVETKMKMLFLANLECETLCQAALLLCSWRAAL
